## Screening data, single-dose tests

Chains of the proteins cited; added tags and fusions are not shown.
UniProt P9WPC5, whole entry: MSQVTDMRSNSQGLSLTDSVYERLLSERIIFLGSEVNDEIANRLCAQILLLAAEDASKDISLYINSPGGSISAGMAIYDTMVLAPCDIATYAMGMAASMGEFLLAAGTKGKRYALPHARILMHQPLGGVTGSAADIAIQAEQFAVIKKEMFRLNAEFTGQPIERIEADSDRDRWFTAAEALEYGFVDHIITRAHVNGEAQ
UniProt P9WPC3, whole entry partner: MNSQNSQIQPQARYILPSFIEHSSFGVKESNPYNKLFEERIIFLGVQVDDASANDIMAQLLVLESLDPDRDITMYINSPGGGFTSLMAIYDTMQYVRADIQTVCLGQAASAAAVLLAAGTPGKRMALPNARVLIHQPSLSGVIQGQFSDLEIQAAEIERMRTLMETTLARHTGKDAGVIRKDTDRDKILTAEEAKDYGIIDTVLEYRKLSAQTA
UniProt I6X8D2, whole entry: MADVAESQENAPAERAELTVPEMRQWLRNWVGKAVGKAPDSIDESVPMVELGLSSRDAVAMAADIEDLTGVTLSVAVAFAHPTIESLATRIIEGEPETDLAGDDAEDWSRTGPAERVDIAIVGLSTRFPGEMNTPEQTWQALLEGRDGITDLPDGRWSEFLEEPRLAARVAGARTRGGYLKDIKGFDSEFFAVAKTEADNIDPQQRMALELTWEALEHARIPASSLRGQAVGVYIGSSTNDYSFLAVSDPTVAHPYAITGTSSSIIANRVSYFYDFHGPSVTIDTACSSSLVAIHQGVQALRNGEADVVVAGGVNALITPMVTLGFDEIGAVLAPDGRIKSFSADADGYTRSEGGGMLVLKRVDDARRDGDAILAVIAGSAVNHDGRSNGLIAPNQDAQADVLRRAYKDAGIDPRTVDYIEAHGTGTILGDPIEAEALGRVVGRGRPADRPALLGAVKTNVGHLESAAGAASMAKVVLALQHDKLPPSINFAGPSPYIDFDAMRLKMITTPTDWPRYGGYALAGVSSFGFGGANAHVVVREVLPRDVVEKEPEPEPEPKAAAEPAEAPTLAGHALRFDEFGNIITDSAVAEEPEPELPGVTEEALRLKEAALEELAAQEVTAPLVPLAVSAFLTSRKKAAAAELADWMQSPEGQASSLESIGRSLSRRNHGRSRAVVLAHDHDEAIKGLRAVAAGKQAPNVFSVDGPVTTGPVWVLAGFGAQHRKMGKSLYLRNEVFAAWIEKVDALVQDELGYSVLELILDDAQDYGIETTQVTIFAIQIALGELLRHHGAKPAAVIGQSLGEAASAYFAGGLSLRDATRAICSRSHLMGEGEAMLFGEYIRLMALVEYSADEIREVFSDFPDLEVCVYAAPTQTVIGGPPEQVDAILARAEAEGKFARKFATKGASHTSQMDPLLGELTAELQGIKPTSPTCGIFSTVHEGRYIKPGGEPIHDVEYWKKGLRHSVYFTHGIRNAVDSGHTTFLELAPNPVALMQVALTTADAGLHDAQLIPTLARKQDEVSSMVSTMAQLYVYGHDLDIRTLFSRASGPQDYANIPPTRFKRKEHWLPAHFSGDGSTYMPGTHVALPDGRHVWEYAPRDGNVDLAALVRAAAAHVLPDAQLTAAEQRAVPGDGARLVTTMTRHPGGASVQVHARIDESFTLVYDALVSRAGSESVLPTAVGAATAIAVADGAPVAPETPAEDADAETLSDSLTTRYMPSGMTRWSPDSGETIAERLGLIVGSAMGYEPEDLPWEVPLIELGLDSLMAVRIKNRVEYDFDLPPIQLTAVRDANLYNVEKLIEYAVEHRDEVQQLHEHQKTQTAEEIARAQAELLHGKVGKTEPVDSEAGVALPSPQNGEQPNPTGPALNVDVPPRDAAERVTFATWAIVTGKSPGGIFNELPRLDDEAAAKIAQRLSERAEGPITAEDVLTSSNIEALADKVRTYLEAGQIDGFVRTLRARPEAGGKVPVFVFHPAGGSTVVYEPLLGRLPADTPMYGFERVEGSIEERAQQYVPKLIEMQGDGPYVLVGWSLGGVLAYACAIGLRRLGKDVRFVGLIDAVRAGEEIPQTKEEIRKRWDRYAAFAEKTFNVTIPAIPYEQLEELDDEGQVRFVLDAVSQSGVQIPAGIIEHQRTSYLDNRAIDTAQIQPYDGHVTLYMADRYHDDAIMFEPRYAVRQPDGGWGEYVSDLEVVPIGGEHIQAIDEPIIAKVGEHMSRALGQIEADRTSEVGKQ

Leishmania in macrophages: 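Cell assay of Leishmania donovani living inside macrophages; the read-out is not stated. Tested at 30 µM. The record gives no direction; compounds that gave an IC50 in retests scored well above the rest, so higher reads as stronger inhibition. Of about 69,000 compounds tested this way, about 1,000 (1.5%) reached 50% or more in at least one test.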
Toxoplasma: 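Assay of Toxoplasma gondii numbers, read through their beta-galactosidase reporter with a colour substrate. Concentration: 10 µM. The record gives no direction; the compounds picked for IC50 retests had high values, so higher reads as fewer parasites. About 67,000 compounds were tested under these conditions; 0.38% (about 260) showed 50% or more at least once.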
ClpP1P2: 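Protease assay of ClpP1P2, read by the AMC dye that it sets free. Target: ClpP1P2, Mycobacterium tuberculosis (UniProt P9WPC5 and UniProt P9WPC3). Concentration: 50 µM. Direction is inferred from only a few compounds that gave an IC50; most scored high, so higher reads as stronger inhibition. Most other retested compounds had strongly negative values. Of about 69,000 compounds tested this way, about 10 (0.015%) reached 50% or more in at least one test.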
T. brucei: 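Whole-parasite assay of Trypanosoma brucei over 72 hours; the read-out is not stated. Tested at 30 µM. The record gives no direction; compounds that gave an IC50 in retests scored well above the rest, so higher reads as stronger inhibition. Values scatter widely below zero; nearly all retest evidence comes from the higher of the two concentrations used. Of about 64,000 compounds tested this way, about 940 (1.5%) reached 50% or more in at least one test.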
Pks13 thioesterase: 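Enzyme assay of the thioesterase domain of polyketide synthase 13; the read-out is not stated. Target: Polyketide synthase Pks13, Mycobacterium tuberculosis (UniProt I6X8D2). Tested at 30 µM. The record gives no direction; the compounds picked for IC50 retests had high values, so higher reads as stronger inhibition. Of about 67,000 compounds tested this way, about 300 (0.46%) reached 50% or more in at least one test.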

Results are given as percent effect. The record does not define 0% and 100%; most values in the screen are far below 50% and negative numbers occur (in some assays of this library far below -100). Compounds were drawn at random from those tested, without regard to their results. Two or more numbers in one place are separate tests of the same structure; such repeats can differ widely. A dash means the value is not listed here; it may have been measured.

compound	Leishmania in macrophages	Toxoplasma	ClpP1P2	T. brucei	Pks13 thioesterase
[H][C@@]12C[C@H](C(=O)NCC3CC3)CN(Cc3ccsc3)[C@]1([H])CCO2	-22.61	-11.45	-	-21.6	-
COc1c(CNCC(O)c2ccc(C)cc2)c(C(C)C)nn1C (stereo unspecified)	6.235	16.09	-38.28	-	-21.65
Cc1cc(C)n(C2CN(CC(O)COc3ccc(F)cc3)C2)n1 (stereo unspecified)	16.18	2.859	-3.625	4.266	-20.7
CC(C)(C)CC(=O)Nc1ccc(S(C)(=O)=O)nc1	2.936	-2.912	2.32	-6.714	-21.1
CNS(=O)(=O)c1ccc(C)c(C(=O)NCCNc2ncccn2)c1	-6.851	11.89	-4.363	12.86	-1.229
CN1CCCn2c(nc(CNC(=O)c3ccsc3)cc2=O)C1.O=C(O)C(F)(F)F	-41.72	-5.773	-	-14.22	-
NC(=O)c1ccccc1Oc1cnc(C2CCCN2)cn1 (stereo unspecified)	1.756	1.809	25.47	-	13.06
CN(Cc1cn2c(n1)CN(C(=O)c1cccn1C)CC2)Cc1ccco1	8.832 & 16.59	-1.58	3.833	-36.41	-27.31
O=C(O)C(F)(F)F.O=C(O)C(F)(F)F.c1cnc(N2CCOCC3(CCCN(CC4CC4)C3)C2)cn1 (stereo unspecified)	4.881	-2.137	-	-41.81	-
Cc1nc(C(C)C)sc1C(=O)NCC(C)(C)N1CCOCC1	7.675	8.649	15.67	5.577	-22.41
Cc1cc(C)n(C2CN(Cc3ccccn3)C2)n1	-3.152	29.04	3.797	-26.29	-6.976
COCc1n[nH]c2c1CN(Cc1ccccn1)C2.O=C(O)C(F)(F)F	2.635	27.39	-	-12.81	-
Cc1nc(C)n(CC2CN(Cc3ccc4c(c3)OCCO4)CCO2)n1 (stereo unspecified)	12.22	3.071	-3.047	9.464	-4.698
c1ccc(CCCN2CC[C@H](c3nnc(-c4cccnc4)o3)C2)cc1	-3.859	10.42	-0.194	16.51	-20.04
Cc1nc(C)c(C(=O)N2Cc3ccccc3OCC2Cn2ccnc2)o1 (stereo unspecified)	18.26	4.117	-12.04	-7.774	-7.051
[H][C@]12CCN(c3cc(OC)ncn3)[C@@]1([H])C[C@H](C(=O)NCCN(C)C)O2	-8.606	-1.166	-	-8.191	-
Cn1cc(CN2C[C@@H]3OCCN(c4ncccn4)[C@@H]3C2)cn1	-	-	13.87	-	-4.194
CC(C)c1cc(NCC(C)N2CCCC2)n2nccc2n1 (stereo unspecified)	28.61	-3.231	-6.042	-11.25	-12.25
CC1CCC(NS(=O)(=O)CC(=O)Nc2ccc(N3CCCC3)cn2)CC1 (stereo unspecified)	25.56	-4.401	5.47	-32.35	-0.09945
CCOCc1nc2c(c(N3CC=CC3)n1)CCN(CC1CC1)CC2	15.99	4.278	-7.288	-25.36	-9.024
CCOC(=O)CNC(=O)Cn1c(-c2ccoc2)nc(C)c1C	6.099	9.814	-9.463	2.097	29.09
CCOc1ccnc(NCc2nc(C)cc(C(F)(F)F)n2)n1	-54.42	6.466	-12	-4.876	-8.219
CCSc1nc(N)c(NC(=O)c2ccc(OC)c(OC)c2)c(=O)[nH]1	9.457 & 6.572	-3.089	15.29	-32.24	-20.52
COc1ccc(CNC(C)c2ccc(Cl)c(Cl)c2)c(OC)c1OC (stereo unspecified)	55.53	-6.628	-2.104	20.68	0.5548
O=C1COC2(COCCN(Cc3cccnc3)C2)CN1c1ccccc1 (stereo unspecified)	-	-	-3.729	-	-7.906
CC(C)(C)c1ncc2c(n1)CN(C(=O)C(C)(C)n1cccc1)C2	3.782	1.868	-3.233	-225.2	-11.16
COc1cc(C(=O)N(C)Cc2nccn2CC(F)(F)F)ccc1C	8.858	-8.633	-9.375	1.849	-11.01
CCOc1ccc(Br)cc1-c1cc(N)[nH]n1.Cl	-5.179	16.86	-	-5.797	-
O=C(COCC1CC1)N1CCCC(n2ccnc2)C1 (stereo unspecified)	9.857	0.2812	14.45	-14.55	-24.13
COCCCNC(=O)CN(C)C(=O)c1cc(C)sc1C	23.53	12.71	6.972	12.44	-8.514
Cc1cc(CN(C)C(=O)NC(C)c2nncn2C)no1 (stereo unspecified)	4.283	-2.966	0.9087	-4.93	-6.334
Cc1cccc(Nc2cc(C)nc(C3CCN(C(C)C)C3)n2)n1 (stereo unspecified)	-	-	16.55	-	-12.94
O=C(COc1ccccc1NCc1ccc(F)cc1)N1CCOCC1	-6.738	9.32	-8.226	-38.39	3.079
O=C(NC[C@H]1C[C@@H]2CCN1C[C@@H]2CN1CCCCC1)Nc1ccccc1	-	-	-1.59	-	11.92
Cc1ccc(=O)n(CC2(O)CCN(Cc3cnn(C)c3)CC2)n1	4.345	8.975	5.152	2.557	6.695
O=C(Nc1ccc(Cl)cn1)C1CCCN(CCc2ccccn2)C1 (stereo unspecified)	11.43	-5.352	7.238	-59.62	-3.689
C=C(C)COc1cccc(CNCCc2nc(N)cc(O)n2)c1	10.98	-33.78	-10.22	-32.01	-5.145
CC(C)Cc1ncc2c(n1)CN(c1nc(N(C)C)nc3c1CCCC3)C2	26.2	-14.02	-20.49	-	14.66
c1ccc2c3c([nH]c2c1)CN(Cc1cc2n(n1)CCNC2)CC3	19.37	-1.581	6.387	-11.36	-36.09
O=C(c1cnccn1)N1CCCC2(CCN(c3ccccn3)C2)C1 (stereo unspecified)	-	-	1.354	-	1.22
O=C(C1CCCC1)N1CCCC2(CCN(c3cnccn3)CC2)C1.O=C(O)C(F)(F)F	23.85	3.988	-	-5.448	-
O=C(c1c(O)cnc2ccccc12)N1CCCSCC1	1.305	-5.492	-17.92	12.23	-4.123
O=C(C[C@@H]1COC[C@H]2CN(C3CCC3)C[C@@H]12)NCc1cccnc1	-	-	-4.748	-	0.6413
CN(Cc1ccc(F)cc1)C(=O)CN1CCOC(Cn2cccn2)C1 (stereo unspecified)	-5.912	9.382	-28.9	-	-5.314
Cc1ncc2c(n1)CN(CCCOc1ccc(C#N)cc1)CC2	-15.74	6.669	-29.32	-14.36	-13.42
Cc1cc(=O)[nH]c(-n2nc(C)c(CCC(=O)Nc3nc(C)cs3)c2C)n1	59.04	1.065	-10.68	-20.36	-5.523
CCC(=O)N1CCN(C(=O)Nc2ccccc2-c2cccs2)CC1	12.13	-1.063	2.242	-9.916	-56.62
CNC(=O)c1cc2c(nc1NCC(C)C)CCN(c1ncccn1)CC2	-	-	-35.44	-	16.69
COCCN1C(=O)CC(N2CCN(c3ccc(OC)cc3)CC2)C1=O (stereo unspecified)	23.28	1.163	2.748	-17.04	-2.659
CN(C)CCN1C(=O)CCC12CCN(C(=O)CC1CC1)CC2	10.68	-8.465	-1.64	-23.33	-13.43

Once more, the final 4:

{"compound": "CCC(=O)N1CCN(C(=O)Nc2ccccc2-c2cccs2)CC1", "Leishmania in macrophages": 12.13, "Toxoplasma": -1.063, "ClpP1P2": 2.242, "T. brucei": -9.916, "Pks13 thioesterase": -56.62}
{"compound": "CNC(=O)c1cc2c(nc1NCC(C)C)CCN(c1ncccn1)CC2", "ClpP1P2": -35.44, "Pks13 thioesterase": 16.69}
{"compound": "COCCN1C(=O)CC(N2CCN(c3ccc(OC)cc3)CC2)C1=O", "stereo": "stereo unspecified", "Leishmania in macrophages": 23.28, "Toxoplasma": 1.163, "ClpP1P2": 2.748, "T. brucei": -17.04, "Pks13 thioesterase": -2.659}
{"compound": "CN(C)CCN1C(=O)CCC12CCN(C(=O)CC1CC1)CC2", "Leishmania in macrophages": 10.68, "Toxoplasma": -8.465, "ClpP1P2": -1.64, "T. brucei": -23.33, "Pks13 thioesterase": -13.43}

The values are deposited in ChEMBL (CHEMBL3988442, “University of Dundee, Small-Polar-MMV Screening Library” (2021)).